Measured values: PMC7226732 (2020)

B1: V5-Cx50 (wild type) [rat] / GFP-LC3B (expressed in HEK293A cells) [not stated (human cDNA cloned; a plasmid from Dr. Yoshimori also named)] (parent complex)
chain 1: MGDWSFLGNILEEVNEHSTVIGRVWLTVLFIFRILILGTAAEFVWGDEQSDFVCNTQQPGCENVCYDEAFPISHIRLWVLQIIFVSTPSLMYVGHAVHHVRMEEKRKDREAEELCQQSRSNGGERVPIAPDQASIRKSSSSSKGTKKFRLEGTLLRTYVCHIIFKTLFEVGFIVGHYFLYGFRILPLYRCSRWPCPNVVDCFVSRPTEKTIFILFMLSVAFVSLFLNIMEMSHLGMKGIRSAFKRPAEQPLGEIAEKSLHSIAVSSIQKAKGYQLLEEEKIVSHYFPLTEVGMVETSPLSAKPFSQFEEKIGTGPLADMSRGYQETLPSYAQVGAQEVEREEQPVEEAVEPEVGEKKQEAEKVAPEGQETVAVPDGEKVETPGVGKDDEKEELQAEKVTKQGLSAEKAPTLCPELTTDDNRPLSRLSKASSRARSDDLTI
chain 2: not shown
B2: V5-Cx37 (wild type) [rat] / GFP-LC3B (expressed in HEK293A cells) [not stated (human cDNA cloned; a plasmid from Dr. Yoshimori also named)] (parent complex)
chain 1: MGDWGFLEKLLDQVQEHSTVVGKIWLTVLFIFRILILGLAGESVWGDEQSDFECNTAQPGCTNVCYDQAFPISHIRYWVLQFLFVSTPTLIYLGHVIYLSRREERLRQKEGELRALPSKDPHVERALAAIEHQMAKISVAEDGRLRIRGALMGTYVISVLCKSVLEAGFLYGQWRLYGWTMEPVFVCQRAPCPHVVDCYVSRPTEKTIFIIFMLVVGVISLVLNLLELVHLLCRCVSREIKARRDHDTRPAQGSASDPYPEQVFFYLPMGEGPSSPPCPTYNGLSSTEQNWANLTTEERLTSTRPPPFVNAAPQGGQKSSSRPNSSASKKQYV
chain 2: not shown

Variants of: B1
Assay: co-immunoprecipitation (IP: V5) and Western blot quantification; HEK293A cell lysates; read off a plot

Row | Variant | ratio to parent
1 | chain 1 W4A, chain 1 L7A | ~0.61

Variants of: B2
Assay: as above

Row | Variant | ratio to parent
2 | chain 1 W4A, chain 1 L7A | ~0.44
